Reference: PubChem BioAssay AID1347076 (National Center for Advancing Translational Sciences (NCATS), 2019)
Among all 400,000 compounds or so, about 13,000 (3.2%) were called active. Inconclusive results, whose numbers are uncertain, are shown with a selection of clear calls. Calls come from the whole dose curve; as a rule, active = well fitted cell-killing curve with a large enough effect; inconclusive = small, poorly fitted or top-dose-only effect, or effect the other way; inactive = flat fitted curve, though single readings scatter. Potencies beside an inconclusive call are fits to weak or partial responses and may not hold up.

experiment: qHTS assay for MDR1-selective chemotherapeutics: Primary screen using the drug-selected MDR subline cells KB-V1; settings: KB-V1 MDR cells viability, CellTiter-Glo, 72 h; activity change, negative = cytotoxicity: at 46.1 µM (top of the series); note: nearly all actives have a fitted effect of over 60% in size
How it was run: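 Luminescent ATP read-out (CellTiter-Glo, 10 min) measures survival of drug-selected KB-V1 MDR cells after 72 h, 37 degrees C compound exposure. Medium: phenol-red-free DMEM, 10% FBS. Values from fitted concentration-response curves.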
% is set by controls: 0 for no effect and ±100 for the full control effect; potency is the fitted concentration of half-maximal effect.

| Compound | Potency | activity change, negative = cytotoxicity |
| --- | --- | --- |
| Cc1cccc(NC(=O)/C(C#N)=C/c2cccc([N+](=O)[O-])c2)n1 | inactive |  |
| O=C(Cc1cccc(NC(=O)C2CCN(S(=O)(=O)c3cccc([N+](=O)[O-])c3)CC2)c1)Nc1cccc(C(=O)N2CCOCC2)c1 | inconclusive: 32.6 µM [rising, single point] |  |
| FC(F)C(F)(F)Oc1cccc(Nc2nccn3c(-c4cccc5ccccc45)cnc23)c1 | inconclusive: 29.1 µM [cytotoxic, single point] |  |
| O=C(C1CCCCC1)N1C[C@H](n2cc(-c3ccc(F)cc3)nn2)[C@@H](O)C[C@@H]1c1ccc(Cl)cc1 | inconclusive: 29.1 µM [cytotoxic, single point] |  |
| COc1ccc(NC(=S)N(CCN2CCOCC2)Cc2ccccc2F)cc1 | inconclusive: 9.2 µM [cytotoxic, partial curve] |  |
| COc1ccc(CCNC(=S)Nc2ccc(C(C)C)cc2)cc1 | active: 23.1 µM |  |
| COc1ccc(-c2cc(NC=O)c3ncc(-c4cccc(C(=O)NCCN(C)C)c4)n3c2)c(OC)c1 | inactive |  |
| O=C1CN(C(=O)COC(=O)c2ccc(C(F)(F)F)cc2)c2ccccc2N1 | inactive |  |
| O=C(NCCCN1CCCC1)c1ccc2c(c1)N(Cc1ccccc1F)C(=O)c1ccccc1S2(=O)=O |  | inconclusive: -0.46% |
| CC(N=C1NS(=O)(=O)c2ccccc21)C(=O)NCc1ccc2c(c1)OCO2 (stereo not given) | inactive |  |
| Cc1ccc(C(=O)ONC(=O)c2ccc(Cl)cc2)cc1[N+](=O)[O-] | inconclusive: 18.4 µM [rising, partial curve, poor fit] |  |
| CCOC(=O)N1CCN(C(=O)c2cnn(-c3cccc(C)c3)c2-n2cccc2)CC1 | inactive |  |
| CCOc1cc(C(=O)Nc2cc(C)ccc2OC)ccc1OCC(=O)N1CCCCC1 | active: 7.31 µM |  |
| COc1ccc(NC(=O)C2CCCN(C(=O)c3cnn(-c4ccc(F)cc4)c3-n3cccc3)C2)cc1 (stereo not given) | inactive |  |
| CCOC(=O)N1CCC(n2c(SCC(=O)NCc3ccco3)nc3ccsc3c2=O)CC1 | active: 2.06 µM |  |
| O=C1CN(C(=O)COc2ccc(F)cc2Cl)c2ccccc2N1 | inconclusive: 29.1 µM [cytotoxic, single point] |  |
| CCCCCCCCOC(=O)c1cc([N+](=O)[O-])c(Sc2ncnc3nc[nH]c23)c([N+](=O)[O-])c1 | inconclusive: 2.91 µM [cytotoxic, partial curve, poor fit] |  |
| O=C(CCCCn1c(=O)c2ccccc2n(Cc2ccc(Cl)cc2)c1=O)NCc1ccccc1Cl | inconclusive: 29.1 µM [cytotoxic, single point] |  |
| O=C(Nc1cnccn1)Nc1ccc(Cl)cc1Cl | inconclusive: 14.6 µM [cytotoxic, single point] |  |
| COC(=O)c1ccc(CNC(=O)N2CCN(S(=O)(=O)c3ccc(C)cc3)CC2)cc1 | inconclusive: 29.1 µM [cytotoxic, single point] |  |
| CC(=O)Nc1cc2c(cc1Cl)-c1ccccc1C2 | inconclusive: 20.6 µM [cytotoxic, single point] |  |
| Cc1c(C(=O)N2CCN(c3ccccn3)CC2)sc2ncnc(N3CCOCC3)c12 | inconclusive: 9.2 µM [cytotoxic, partial curve] |  |
| Cc1ccc(NC(=O)NCCCN2CCCC2=O)cc1C | inactive |  |
| O=C(Nc1cccnc1Cl)c1ccc(S(=O)(=O)N2CCCCCC2)cc1 | active: 9.2 µM |  |

Grouped by structure, the entries above with a nitro group on carbon.

| Compound | Potency | activity change, negative = cytotoxicity |
| --- | --- | --- |
| Cc1cccc(NC(=O)/C(C#N)=C/c2cccc([N+](=O)[O-])c2)n1 | inactive |  |
| O=C(Cc1cccc(NC(=O)C2CCN(S(=O)(=O)c3cccc([N+](=O)[O-])c3)CC2)c1)Nc1cccc(C(=O)N2CCOCC2)c1 | inconclusive: 32.6 µM [rising, single point] |  |
| Cc1ccc(C(=O)ONC(=O)c2ccc(Cl)cc2)cc1[N+](=O)[O-] | inconclusive: 18.4 µM [rising, partial curve, poor fit] |  |
| CCCCCCCCOC(=O)c1cc([N+](=O)[O-])c(Sc2ncnc3nc[nH]c23)c([N+](=O)[O-])c1 | inconclusive: 2.91 µM [cytotoxic, partial curve, poor fit] |  |

(more compounds)

| Compound | Potency | activity change, negative = cytotoxicity |
| --- | --- | --- |
| CCOc1cccc2sc(N(Cc3cccnc3)C(=O)C3CCCCC3)nc12 | inactive |  |
| Cc1ccc(CNC(=O)C2CCCN(S(=O)(=O)c3ccc(F)cc3)C2)cc1 (stereo not given) | inconclusive: 10.3 µM [cytotoxic, partial curve] |  |
| O=C1C2CCCN2C(c2ccccc2F)N1c1ccc(Cl)cc1 (stereo not given) | inconclusive: 18.4 µM [cytotoxic, single point] |  |
| COc1ccc(CNC(=O)CSCc2cccc(Cl)c2)cc1 | inconclusive: 18.4 µM [cytotoxic, single point] |  |
| COc1ccc(C(=O)OCC(=O)Nc2ccc(OC)c(S(=O)(=O)N3CCCCC3)c2)cc1[N+](=O)[O-] | inactive |  |
| Cc1ccccc1OCC(=O)OCC(=O)NC1CCCC1 | inactive |  |
| COc1ccc(CN(C2CCCC2)S(=O)(=O)c2ccc(-n3cnnn3)cc2)cc1OC | inconclusive: 18.4 µM [cytotoxic, partial curve, poor fit] |  |
| Cc1ccc(N(C(=O)Cn2nnc(-c3cccs3)n2)C(C(=O)NC2CCCC2)c2ccncc2)cc1 (stereo not given) | inconclusive: 20.6 µM [cytotoxic, single point] |  |
| COc1ccc(C2CC(c3cccs3)=NN2C(=O)COC(=O)C2CCCCC2)cc1OC (stereo not given) | inconclusive: 11.6 µM [cytotoxic, partial curve, poor fit] |  |
| O=C1c2cccnc2Oc2ccc(Cl)cc2N1Cc1ccc(F)cc1 | inconclusive: 29.1 µM [cytotoxic, single point] |  |
| Cc1occc(=O)c1OC(=O)Nc1ccc(Cl)c(Cl)c1 | inconclusive: 29.1 µM [cytotoxic, single point] |  |
| CC(Nc1ccc(Br)cc1)C(=O)NC(=O)NC1CCCCC1 (stereo not given) | inactive |  |
| CCn1c(SCC(=O)c2ccc(Cl)cc2)nnc1-c1ccoc1C | inactive |  |
| CC(C)C(=O)N1CCN(c2ccc(NC(=O)c3ccc4c(c3)OCCO4)cc2)CC1 | inconclusive: 7.31 µM [cytotoxic, partial curve] |  |
| COc1ccc(-c2cc3nc(NCc4ccc(C)cc4C)n(C)c(=O)c3s2)cc1OC | active: 2.59 µM |  |
| COc1ccc(NC(C)=O)cc1NC(=O)c1cccc(S(=O)(=O)N2CCN(Cc3ccccc3)CC2)c1 | active: 16.4 µM |  |
| Cc1cc(OCC(=O)N(C)C)c2c(-c3ccccc3)cc(=O)oc2c1 | inconclusive: 29.1 µM [cytotoxic, single point] |  |
| COC1=CC(=O)c2c(ccc3ncnc(N)c23)C1=O | active: 1.84 µM |  |
| CCCCn1c(N)c(N(CCOC)C(=O)c2cc(-c3ccccc3Cl)nc3ccccc23)c(=O)[nH]c1=O | inactive |  |
| CCCN(C(=O)c1cccs1)c1nnc(-c2ccncc2)s1 | inactive |  |
| Cc1cccc(NC(=O)c2ccc(C(=O)Nc3cccc(C)c3C)cc2)c1C | inconclusive: 11.6 µM [rising, partial curve, poor fit] |  |
| Cc1ccc(Nc2c(-c3ccc(C)o3)nc3ncccn23)cc1 |  | inconclusive: -0.146% |
| O=C(Nc1cccc(C(=O)Nc2ccccc2F)c1)c1ccccc1 | inconclusive: 20.6 µM [cytotoxic, single point] |  |
| CCCCOc1ccc(/C=C/C(=O)NCCc2nc3ccccc3[nH]2)cc1 | inconclusive: 9.2 µM [cytotoxic, partial curve] |  |

| Compound | Potency | activity change, negative = cytotoxicity |
| --- | --- | --- |
| Cc1cc(NC(=O)CN(C)CCOc2ccccc2)ccc1Br | inconclusive: 23.1 µM [cytotoxic, single point] |  |
| COC(=O)c1c(N)[nH]c(C(=O)c2ccccc2)c1-c1ccc(Br)cc1 | inconclusive: 16.4 µM [cytotoxic, partial curve, poor fit] |  |
| Cn1cnc(S(=O)(=O)N2CCN(c3ccc(F)cc3)CC2)c1 | inactive |  |
| COc1ccc(/C=C2\N=C(C)OC2=O)cc1OC | inconclusive: 20.6 µM [rising, single point] |  |
| CC(C)(C)CN1CCNC[C@H]1Cc1cccc2ccccc12 | inactive |  |
| O=S(=O)(Cc1noc(-c2ccc(Cl)cc2)n1)Cc1ccco1 | inconclusive: 29.1 µM [rising, single point] |  |
| CC(C)CNC(=O)COC(=O)Cc1ccc(Cl)cc1 | inactive |  |
| Cn1cc(/C=N/NC(N)=S)c2ccccc21 | inactive |  |
| CCC(C)N(C(=O)COC(=O)c1ccccc1SCC(=O)N1CCCC1)C1CCS(=O)(=O)C1 (stereo not given) | inactive |  |
| CN(C)c1ccc(/C=C/c2ccnc3ccccc23)cc1 | inconclusive: 29.1 µM [cytotoxic, single point] |  |
| O=C1CC(N2CCN(c3ccccn3)CC2)C(=O)N1c1ccc(Cl)cc1 (stereo not given) | inconclusive: 32.6 µM [rising, partial curve, poor fit] |  |
| COCCNC(=S)N1CCC(NC(=O)Nc2ccc(C)cc2)CC1 | inactive |  |
| COc1cc2c(=O)n(-c3ccc(C)cc3)c(=O)n(CC(=O)c3ccc4c(c3)OCO4)c2cc1OC | inconclusive: 16.4 µM [rising, single point] |  |
| COc1ccc(CCn2nnnc2C(C(C)C)N2CCN(c3ncccn3)CC2)cc1OC (stereo not given) | inconclusive: 7.31 µM [cytotoxic, partial curve] |  |
| O=C(OCC(=O)N1CCCCC1)c1cccc(NS(=O)(=O)c2ccccc2)c1 | inconclusive: 29.1 µM [rising, single point] |  |
| Cc1ccc(-c2cc(C(=O)NC(C)c3ccccc3)c3ccccc3n2)cc1C (stereo not given) | inactive |  |
| Cc1ccc(S(=O)(=O)NCCC(=O)Nc2ccc(Cl)c(Cl)c2)cc1C | inconclusive: 0.231 µM [rising, full curve, poor fit] |  |
| O=C1c2ccccc2S(=O)(=O)c2cc(C(=O)N(c3ccccn3)c3ccccn3)ccc21 | active: 14.6 µM |  |
| COc1ccc(C(=O)C2CCCN(Cc3cccn3-c3ccccn3)C2)c(OC)c1 (stereo not given) | inconclusive: 29.1 µM [cytotoxic, single point] |  |
| Cc1c(C)n(CCN(C)C)c2ncnc(NCc3ccccc3)c12 | inconclusive: 14.6 µM [cytotoxic, partial curve, poor fit] |  |
| CN(C)S(=O)(=O)n1cc(/C=C(\NC(=O)c2ccccc2)C(=O)NCCN2CCOCC2)c2ccccc21 | inconclusive: 0.58 µM [rising, partial curve, poor fit] |  |
| CCOC(=O)c1c(NC(=O)c2cccs2)sc2c1CC(C)(C)OC2 | inconclusive: 29.1 µM [cytotoxic, single point] |  |
